Results: publication doi:10.1101/377465
Results are given in words; binding and its absence hold for the method and conditions named. In cells and extracts the contact can be indirect. Some binding calls cover weakened binding; strength is not graded here. Sequences can lack the tags named with a protein.

Amino acid sequences for entries named in this document (tags omitted).
UniProt Q99755: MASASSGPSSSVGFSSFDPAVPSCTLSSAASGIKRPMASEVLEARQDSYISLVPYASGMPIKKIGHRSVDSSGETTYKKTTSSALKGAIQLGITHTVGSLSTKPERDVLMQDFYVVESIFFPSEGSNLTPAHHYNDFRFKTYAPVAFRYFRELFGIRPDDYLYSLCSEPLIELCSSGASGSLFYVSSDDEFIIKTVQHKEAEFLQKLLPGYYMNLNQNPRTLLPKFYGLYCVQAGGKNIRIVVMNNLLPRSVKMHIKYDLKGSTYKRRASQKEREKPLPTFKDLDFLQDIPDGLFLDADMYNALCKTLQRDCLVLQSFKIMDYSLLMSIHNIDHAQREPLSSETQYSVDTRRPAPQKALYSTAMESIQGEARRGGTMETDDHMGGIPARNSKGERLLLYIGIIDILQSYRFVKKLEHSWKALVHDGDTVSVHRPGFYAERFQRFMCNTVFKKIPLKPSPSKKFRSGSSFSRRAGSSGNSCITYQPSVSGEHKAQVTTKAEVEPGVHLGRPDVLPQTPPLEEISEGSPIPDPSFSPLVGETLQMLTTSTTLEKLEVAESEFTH
UniProt O60331: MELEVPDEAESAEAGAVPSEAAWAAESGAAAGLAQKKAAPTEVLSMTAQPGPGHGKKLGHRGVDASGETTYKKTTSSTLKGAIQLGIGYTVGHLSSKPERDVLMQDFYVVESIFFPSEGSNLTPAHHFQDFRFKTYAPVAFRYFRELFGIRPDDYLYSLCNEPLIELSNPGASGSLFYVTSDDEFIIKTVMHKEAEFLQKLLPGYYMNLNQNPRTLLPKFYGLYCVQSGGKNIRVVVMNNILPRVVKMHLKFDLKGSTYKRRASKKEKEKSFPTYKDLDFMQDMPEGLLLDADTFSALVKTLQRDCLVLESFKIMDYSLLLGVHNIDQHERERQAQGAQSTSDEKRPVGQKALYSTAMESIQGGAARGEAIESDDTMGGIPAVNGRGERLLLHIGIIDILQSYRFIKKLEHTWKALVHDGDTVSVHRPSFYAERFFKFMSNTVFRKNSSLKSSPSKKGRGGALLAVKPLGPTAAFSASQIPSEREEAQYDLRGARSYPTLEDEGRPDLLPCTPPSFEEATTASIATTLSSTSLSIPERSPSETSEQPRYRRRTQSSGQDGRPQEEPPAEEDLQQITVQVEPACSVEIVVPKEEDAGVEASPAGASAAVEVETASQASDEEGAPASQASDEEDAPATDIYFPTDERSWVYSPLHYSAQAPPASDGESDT
UniProt O14986: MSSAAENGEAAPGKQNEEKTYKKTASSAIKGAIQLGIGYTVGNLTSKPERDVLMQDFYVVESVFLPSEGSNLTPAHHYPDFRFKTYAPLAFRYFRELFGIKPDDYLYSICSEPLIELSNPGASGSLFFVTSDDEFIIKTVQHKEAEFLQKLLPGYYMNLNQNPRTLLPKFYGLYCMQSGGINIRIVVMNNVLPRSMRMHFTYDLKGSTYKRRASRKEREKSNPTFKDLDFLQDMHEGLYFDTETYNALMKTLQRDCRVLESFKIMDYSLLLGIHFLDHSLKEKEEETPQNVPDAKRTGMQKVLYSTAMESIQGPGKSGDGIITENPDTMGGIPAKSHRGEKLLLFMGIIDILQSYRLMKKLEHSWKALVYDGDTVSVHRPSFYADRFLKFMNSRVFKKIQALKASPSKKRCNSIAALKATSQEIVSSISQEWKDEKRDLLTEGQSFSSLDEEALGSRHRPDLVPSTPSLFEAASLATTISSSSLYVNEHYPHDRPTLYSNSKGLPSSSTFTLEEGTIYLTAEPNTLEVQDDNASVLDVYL

Assays:
Assay in all cases: FRET or BRET
YFP-PIP5Kα = YFP-PIP5Kα (UniProt Q99755)
GFP-PIP5Kγ90 = GFP-PIP5Kγ90 (UniProt O60331)
YFP-PIP5Kβ = YFP-PIP5Kβ (UniProt O14986)

Measured: binding

B1: mCherry-tagged phosphatidylinositol 4-phosphate 5-kinase homolog (PIPKH) (protein, UniProt Q5T9C9 1-394)
chain: MAAPSPGPREVLAPSPEAGCRAVTSSRRGLLWRLRDKQSRLGLFEISPGHELHGMTCMMQAGLWAATQVSMDHPPTGPPSRDDFSEVLTQVHEGFELGTLAGPAFAWLRRSLGLAEEDYQAALGPGGPYLQFLSTSKSKASFFLSHDQRFFLKTQGRREVQALLAHLPRYVQHLQRHPHSLLARLLGVHSLRVDRGKKTYFIVMQSVFYPAGRISERYDIKGCEVSRWVDPAPEGSPLVLVLKDLNFQGKTINLGPQRSWFLRQMELDTTFLRELNVLDYSLLIAFQRLHEDERGPGSSLIFRTARSVQGAQSPEESRAQNRRLLPDAPNALHILDGPEQRYFLGVVDLATVYGLRKRLEHLWKTLRYPGRTFSTVSPARYARRLCQWVEAHTE
binds: YFP-PIP5Kα | GFP-PIP5Kγ90 | YFP-PIP5Kβ
